The text below walks through data of the supplement of paper PMC7877785.

± gives the uncertainty stated by the source. Many of these values have a large error.

A short description of the series: self-splicing fitness, log relative to wild type (ln ratio); higher = more splicing; Tetrahymena group I intron in knt gene, E. coli kanamycin selection, DiMSum; sequences stand for … in CUCUCU…GGAGGGAAAAGUUAUCAGGCAUGCACCUGGUAGCUAGUCUUUAAACCAAUAGAUUGCAUCGGUUUAAAAGGCAAGACCGUCAAAUUGCGGGAAAGGGGUCAACAGCCGUUCAGUACCAAGUCUCAGGGGAAACUUUGAGAUGGCCUUGCAAAGGGUAUGGUAAUAAGCUGACGGACAUGGUCCUAACCACGCAGCCAAGUCCUAAGUCAACAGAUCUUCUGUUGAUAUGGAUGCAGUUCACAGACUAAAUGUCGGUCGGGGAAGAUGUAUUCUUCUCAUAAGAUAUAGUCGGACCUCUCCUUAAUGGGAGCUAGCGGAUGAAGUGAUGCAACACUGGAGCCGCUGGGAACUAAUUUGUAUGCGAAAGUAUAUUGAUUAGUUUUGGAGUACUCGUGGUCG
The essentials:
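Fitness was computed with DiMSum as the error-weighted combination of replicate fold changes, kanamycin versus none, each normalised to wild type. The library randomised all eight intron nucleotides of the P1ex region, with the intron placed in the knt kanamycin-resistance gene on pET-22b(+) in E. coli BL21(DE3). Six replicate transformations were grown overnight at 37°C or 30°C on LB agar with or without 25 μg/mL kanamycin, plus 100 μg/mL carbenicillin, 50 μM IPTG and 0.2% rhamnose. Pooled colonies were amplicon-sequenced on an Illumina HiSeq 2500.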

Regarding UCCGAGCAAUAUUACGGCUC, under “30 °C”, the “self-splicing fitness (ln)” value was -3.87 ± 0.6.

As for CCCAAGCAAUAUUACGACCC, the “self-splicing fitness (ln)” value runs as follows: (30 °C) -3.66 ± 1; (37 °C) -2.8 ± 0.53.

As to ACGGAGCAAUAUUACGCCUU, the “self-splicing fitness (ln)” value by setting is: (30 °C) -3.46 ± 0.6; (37 °C) -2.72 ± 0.75.

On to UACGAGCAAUAUUACGGUGU, for which the “self-splicing fitness (ln)” value (30 °C) is -5.59 ± 1.

Take UUAGAGCAAUAUUACGAAUU: the “self-splicing fitness (ln)” value (37 °C) was -2.62 ± 0.63.

As for CGAGAGCAAUAUUACGGCAA, where the note is “30 °C”, the “self-splicing fitness (ln)” value was -2.62 ± 0.76.

With UUUCAGCAAUAUUACGCCGA, the “self-splicing fitness (ln)” value (30 °C) is -2.61 ± 0.51.

With UCGGAGCAAUAUUACGGGAC, the “self-splicing fitness (ln)” value (30 °C) is -1.32 ± 1.4.

Take AAUGAGCAAUAUUACGGACC: the “self-splicing fitness (ln)” value (30 °C) is -3.42 ± 0.74.

In the case of GGAUAGCAAUAUUACGCAAC, the “self-splicing fitness (ln)” value was -3.48 ± 0.75 (30 °C) and -1.88 ± 0.6 (37 °C).

As to UCCGAGCAAUAUUACGCAAU, for the setting “30 °C”, the “self-splicing fitness (ln)” value was -5.67 ± 1.

As to AGUGAGCAAUAUUACGCUCG, under “30 °C”, the “self-splicing fitness (ln)” value was -2.29 ± 0.58.

Turning to UUCUAGCAAUAUUACGCCCC, the “self-splicing fitness (ln)” value (30 °C) was -1.27 ± 1.4 and the “self-splicing fitness (ln)” value (37 °C) was -1.36 ± 0.56.

In the case of CCUUAGCAAUAUUACGCGGU, the “self-splicing fitness (ln)” value (37 °C) was -2.92 ± 0.61.

In the case of GGGCAGCAAUAUUACGGAGA, the “self-splicing fitness (ln)” value by setting is: (30 °C) -4.44 ± 0.46; (37 °C) -2.56 ± 0.22.

For the sequence CGAGAGCAAUAUUACGUCCC, the “self-splicing fitness (ln)” value was -2.97 ± 0.75 (30 °C) and -3.28 ± 0.73 (37 °C).

Regarding AGUGAGCAAUAUUACGGGAA, where the note is “37 °C”, the “self-splicing fitness (ln)” value was -2.47 ± 0.55.

For AGUCAGCAAUAUUACGUGGG, the “self-splicing fitness (ln)” value runs as follows: (30 °C) -4.29 ± 0.21; (37 °C) -2.44 ± 0.14.

Consider UGGCAGCAAUAUUACGACGC, for which the “self-splicing fitness (ln)” value (30 °C) is -4.78 ± 0.58.

In the case of AUUGAGCAAUAUUACGAUCG, the “self-splicing fitness (ln)” value is -2.34 ± 0.34 (30 °C) and -1.04 ± 0.19 (37 °C).

With CGGGAGCAAUAUUACGGAUC, the “self-splicing fitness (ln)” value reads like this: (30 °C) -3.09 ± 0.43; (37 °C) -2.07 ± 0.42.

GAGGAGCAAUAUUACGGCCG: where the note is “30 °C”, the “self-splicing fitness (ln)” value is -2.56 ± 0.63.

Take AAGGAGCAAUAUUACGUAAA: the “self-splicing fitness (ln)” value (30 °C) is -2.81 ± 0.32 and the “self-splicing fitness (ln)” value (37 °C) was -0.663 ± 0.24.

Turning to UUAGAGCAAUAUUACGCAAC, the “self-splicing fitness (ln)” value was -3.54 ± 0.6 (30 °C) and -3.09 ± 0.74 (37 °C).

In the case of UGAUAGCAAUAUUACGAUAC, the “self-splicing fitness (ln)” value runs as follows: (30 °C) -3.77 ± 0.52; (37 °C) -2.58 ± 0.54.

Consider CCCUAGCAAUAUUACGACGG, for which the “self-splicing fitness (ln)” value runs as follows: (30 °C) -2.7 ± 0.14; (37 °C) -2.87 ± 0.34.

For GGGGAGCAAUAUUACGUCAU, the “self-splicing fitness (ln)” value (30 °C) was -3.95 ± 0.6.

With CUAUAGCAAUAUUACGCGCC, the “self-splicing fitness (ln)” value (37 °C) is -0.96 ± 0.68.

For the sequence UGAGAGCAAUAUUACGCAGA, the “self-splicing fitness (ln)” value by setting is: (30 °C) -3.1 ± 0.34; (37 °C) -2.54 ± 0.63.

As for UAGGAGCAAUAUUACGCGGU, the “self-splicing fitness (ln)” value reads like this: (30 °C) -1.52 ± 0.23; (37 °C) -2.13 ± 0.51.

In the case of CUCGAGCAAUAUUACGUGCC, the “self-splicing fitness (ln)” value (37 °C) was -3.14 ± 0.53.

As to GUCAAGCAAUAUUACGAAGA, for the setting “37 °C”, the “self-splicing fitness (ln)” value is -4.69 ± 1.

For the sequence CCCUAGCAAUAUUACGUAUC, the “self-splicing fitness (ln)” value (30 °C) is -4.76 ± 1.

As to UUGGAGCAAUAUUACGAUGC, where the note is “37 °C”, the “self-splicing fitness (ln)” value is -2.23 ± 0.51.

As to AGUAAGCAAUAUUACGAUGU, the “self-splicing fitness (ln)” value runs as follows: (30 °C) -3.05 ± 0.15; (37 °C) -1.17 ± 0.13.

On to UCGAAGCAAUAUUACGUUGC, for which, under “37 °C”, the “self-splicing fitness (ln)” value was -4.41 ± 0.59.

For UCAGAGCAAUAUUACGACAA, under “30 °C”, the “self-splicing fitness (ln)” value is -2.11 ± 0.8.

Consider UCCAAGCAAUAUUACGUUCC, for which the “self-splicing fitness (ln)” value (30 °C) was -4.58 ± 1.

Consider GAAGAGCAAUAUUACGCCAA, for which the “self-splicing fitness (ln)” value (30 °C) was -2.51 ± 0.55.

In the case of GGUUAGCAAUAUUACGCCAU, the “self-splicing fitness (ln)” value (37 °C) was -0.943 ± 0.84.

With UUUCAGCAAUAUUACGAGCC, the “self-splicing fitness (ln)” value (30 °C) is -2.62 ± 1.1.

As for CGGGAGCAAUAUUACGAACC, the “self-splicing fitness (ln)” value by setting is: (30 °C) -2.09 ± 1.4; (37 °C) 0.807 ± 0.64.

As for GGAUAGCAAUAUUACGGCAC, the “self-splicing fitness (ln)” value was -1.16 ± 0.14 (30 °C) and -0.0176 ± 0.17 (37 °C).

For the sequence UCGGAGCAAUAUUACGAGAU, the “self-splicing fitness (ln)” value (30 °C) was -3.4 ± 1.1.

As to GUUAAGCAAUAUUACGGAAC, the “self-splicing fitness (ln)” value (30 °C) was -4.03 ± 1 and the “self-splicing fitness (ln)” value (37 °C) was -1.43 ± 0.34.

As to UUUCAGCAAUAUUACGAAAU, the “self-splicing fitness (ln)” value (30 °C) is -4.6 ± 0.52.

With GUGGAGCAAUAUUACGGAUU, the “self-splicing fitness (ln)” value (37 °C) is -3.23 ± 0.75.

For UCUGAGCAAUAUUACGCUCC, where the note is “37 °C”, the “self-splicing fitness (ln)” value was -2.13 ± 0.58.
